The values that follow come from doi:10.1101/2021.10.20.465144.

Chains of the proteins cited; added tags and fusions are not shown.
UniProt O95166: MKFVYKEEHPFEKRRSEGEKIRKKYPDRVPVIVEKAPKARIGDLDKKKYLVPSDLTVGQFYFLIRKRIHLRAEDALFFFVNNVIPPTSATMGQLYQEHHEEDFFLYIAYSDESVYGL
UniProt Q9Y6I9: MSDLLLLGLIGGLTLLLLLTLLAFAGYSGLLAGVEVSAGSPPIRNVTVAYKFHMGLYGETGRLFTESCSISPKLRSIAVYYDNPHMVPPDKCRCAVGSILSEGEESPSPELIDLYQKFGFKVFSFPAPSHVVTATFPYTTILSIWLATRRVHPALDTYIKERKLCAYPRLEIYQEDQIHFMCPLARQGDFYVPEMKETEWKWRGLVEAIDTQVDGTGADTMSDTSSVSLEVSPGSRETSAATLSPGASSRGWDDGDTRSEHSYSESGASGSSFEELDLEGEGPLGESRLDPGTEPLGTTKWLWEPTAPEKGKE
UniProt Q8TDY2: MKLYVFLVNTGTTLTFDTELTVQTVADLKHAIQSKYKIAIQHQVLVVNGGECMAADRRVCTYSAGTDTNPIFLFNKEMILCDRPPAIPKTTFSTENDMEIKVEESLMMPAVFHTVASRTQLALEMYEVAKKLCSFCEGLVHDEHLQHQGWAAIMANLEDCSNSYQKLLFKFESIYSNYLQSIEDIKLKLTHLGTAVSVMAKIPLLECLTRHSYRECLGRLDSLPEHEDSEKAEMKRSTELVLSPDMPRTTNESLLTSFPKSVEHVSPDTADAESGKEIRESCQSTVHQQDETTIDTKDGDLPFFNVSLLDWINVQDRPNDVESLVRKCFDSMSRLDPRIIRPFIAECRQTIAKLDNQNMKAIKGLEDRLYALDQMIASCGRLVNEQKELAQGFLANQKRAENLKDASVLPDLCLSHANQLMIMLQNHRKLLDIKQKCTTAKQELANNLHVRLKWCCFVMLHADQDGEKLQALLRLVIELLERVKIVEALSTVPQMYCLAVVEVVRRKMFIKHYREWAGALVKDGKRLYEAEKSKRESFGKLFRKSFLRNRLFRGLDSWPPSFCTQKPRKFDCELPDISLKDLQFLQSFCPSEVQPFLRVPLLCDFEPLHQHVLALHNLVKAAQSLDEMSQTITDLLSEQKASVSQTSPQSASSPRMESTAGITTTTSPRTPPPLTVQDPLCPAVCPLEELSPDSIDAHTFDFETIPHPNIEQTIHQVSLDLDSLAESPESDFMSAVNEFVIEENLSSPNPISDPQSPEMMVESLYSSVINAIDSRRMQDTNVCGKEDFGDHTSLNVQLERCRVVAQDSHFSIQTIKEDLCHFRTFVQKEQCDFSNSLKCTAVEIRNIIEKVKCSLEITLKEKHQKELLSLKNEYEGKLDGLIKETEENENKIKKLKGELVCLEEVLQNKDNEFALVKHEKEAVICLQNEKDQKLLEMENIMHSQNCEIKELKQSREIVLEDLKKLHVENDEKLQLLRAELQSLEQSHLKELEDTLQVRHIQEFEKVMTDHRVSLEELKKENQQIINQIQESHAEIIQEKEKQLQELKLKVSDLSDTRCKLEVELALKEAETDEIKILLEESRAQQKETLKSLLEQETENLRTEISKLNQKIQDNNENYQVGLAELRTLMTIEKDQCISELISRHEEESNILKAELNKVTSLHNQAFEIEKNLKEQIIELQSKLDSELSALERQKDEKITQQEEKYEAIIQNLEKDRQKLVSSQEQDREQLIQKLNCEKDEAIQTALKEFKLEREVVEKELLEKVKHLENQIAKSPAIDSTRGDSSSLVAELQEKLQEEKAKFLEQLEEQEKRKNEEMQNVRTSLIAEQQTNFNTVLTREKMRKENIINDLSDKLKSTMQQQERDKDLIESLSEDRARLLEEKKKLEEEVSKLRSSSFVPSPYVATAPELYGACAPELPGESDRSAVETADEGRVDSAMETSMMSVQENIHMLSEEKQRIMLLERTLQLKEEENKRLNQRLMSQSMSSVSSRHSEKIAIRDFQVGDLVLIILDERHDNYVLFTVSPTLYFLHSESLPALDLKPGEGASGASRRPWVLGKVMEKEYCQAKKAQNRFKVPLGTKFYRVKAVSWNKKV

Experiment [1] concerns the target GST-GABARAP (UniProt O95166). The experiment can be described thus: pull-down.
Experiment [2] has as its target 3xFLAG-GABARAP (UniProt O95166). The experiment can be described thus: co-IP.
For experiment [3], the target named is T1, FLAG-DNAJB12 (WT) (UniProt Q9NXW2).
T1 sequence: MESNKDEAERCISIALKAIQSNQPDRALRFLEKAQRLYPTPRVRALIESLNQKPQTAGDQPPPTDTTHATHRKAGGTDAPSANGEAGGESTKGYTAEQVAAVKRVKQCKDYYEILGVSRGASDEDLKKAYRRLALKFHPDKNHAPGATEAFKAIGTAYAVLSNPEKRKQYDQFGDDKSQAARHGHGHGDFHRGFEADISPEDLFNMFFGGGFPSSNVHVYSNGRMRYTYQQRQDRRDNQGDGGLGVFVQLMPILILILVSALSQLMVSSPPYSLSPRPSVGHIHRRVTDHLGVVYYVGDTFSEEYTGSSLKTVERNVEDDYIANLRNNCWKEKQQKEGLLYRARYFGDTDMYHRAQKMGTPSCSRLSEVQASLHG
Briefly: co-IP.

These are yes or no findings as the source states them, for the method shown. In cells and extracts the contact can be indirect. Some results given as binding are weak or reduced against the parent protein; the word gives no strength. For some assays here: Sequences can lack the tags named with a protein.

With TEX264 (from UniProt Q9Y6I9 1-313), the binding entry in experiment [1] is “binds”.
“FIP200 (focal adhesion kinase family interacting protein of 200 kD) (from UniProt Q8TDY2 1-1594)”: the binding entry in experiment [1], in experiment [2] and in experiment [3] was “binds” throughout.

B1: CCPG1 (protein, UniProt Q9ULG6 1-757)
chain: MSENSSDSDSSCGWTVISHEGSDIEMLNSVTPTDSCEPAPECSSLEQEELQALQIEQGESSQNGTVLMEETAYPALEETSSTIEAEEQKIPEDSIYIGTASDDSDIVTLEPPKLEEIGNQEVVIVEEAQSSEDFNMGSSSSSQYTFCQPETVFSSQPSDDESSSDETSNQPSPAFRRRRARKKTVSASESEDRLVAEQETEPSKELSKRQFSSGLNKCVILALVIAISMGFGHFYGTIQIQKRQQLVRKIHEDELNDMKDYLSQCQQEQESFIDYKSLKENLARCWTLTEAEKMSFETQKTNLATENQYLRVSLEKEEKALSSLQEELNKLREQIRILEDKGTSTELVKENQKLKQHLEEEKQKKHSFLSQRETLLTEAKMLKRELERERLVTTALRGELQQLSGSQLHGKSDSPNVYTEKKEIAILRERLTELERKLTFEQQRSDLWERLYVEAKDQNGKQGTDGKKKGGRGSHRAKNKSKETFLGSVKETFDAMKNSTKEFVRHHKEKIKQAKEAVKENLKKFSDSVKSTFRHFKDTTKNIFDEKGNKRFGATKEAAEKPRTVFSDYLHPQYKAPTENHHNRGPTMQNDGRKEKPVHFKEFRKNTNSKKCSPGHDCRENSHSFRKACSGVFDCAQQESMSLFNTVVNPIRMDEFRQIIQRYMLKELDTFCHWNELDQFINKFFLNGVFIHDQKLFTDFVNDVKDYLRNMKEYEVDNDGVFEKLDEYIYRHFFGHTFSPPYGPRSVYIKPCHYSSL
Regarding B1, the binding entry in experiment [1] is given as “binds”.
